No constants are given. Whether binding was seen depends on the method and setting. Binding calls can cover weak binding; strength is not graded here.
Target: FUST1 (recombinant, forming droplets in vitro) (Arabidopsis thaliana) (UniProt F4JFL5)
Assay: in vitro partitioning into condensates (confocal microscopy); 2.5 μM of each protein with 2.5 μM FUST1 droplets in 40 mM Tris-HCl pH 7.4 and 100 mM NaCl; compared at 4 °C and 37 °C; both purified

Binder	binding
PAB2 (recombinant) (protein, UniProt P42731 1-629) MAQVQLQGQTPNGSTAAVTSAPATSGGATATQFGNTSLYVGDLDFNVTDSQLFDAFGQMGTVVTVRVCRDLVTRRSLGYGYVNFTNPQDAARAIQELNYIPLYGKPIRVMYSHRDPSVRRSGAGNIFIKNLDESIDHKALHDTFSSFGNIVSCKVAVDSSGQSKGYGFVQYANEESAQKAIEKLNGMLLNDKQVYVGPFLRRQERDSTANKTKFTNVYVKNLAESTTDDDLKNAFGEYGKITSAVVMKDGEGKSKGFGFVNFENADDAARAVESLNGHKFDDKEWYVGRAQKKSERETELRVRYEQNLKEAADKFQSSNLYVKNLDPSISDEKLKEIFSPFGTVTSSKVMRDPNGTSKGSGFVAFATPEEATEAMSQLSGKMIESKPLYVAIAQRKEDRRVRLQAQFSQVRPVAMQPSVGPRMPVYPPGGPGIGQQMFYGQAPPAMIPPQPGYGYQQQLVPGMRPGGGPVPSFFMPMVQPQQQRPGGGRRPGGIQHSQQQNPMMQQQMHPRGRMFRYPQGRGGSGDVPPYDMGNNMPLTIGALASNLSNATPEQQRTMLGEVLYPLVEQVEAESAAKVTGMLLEMDQTEVLHLLESPEALKAKVAEAMDVLRSVAAGGATEQLASLNLS	binds
RBP47b (recombinant) (protein, UniProt Q0WW84 1-435) MQTTNGSDSTLATSGATPPNQQTPPPPQQWQQQQQQQQQWMAAMQYPPAAAMMMMQQQQMLMYPHQYVPYNQGPYQQHHPQLHQYGSYQQHQHQQHKAIDRGSGDDVKTLWVGDLLHWMDETYLHSCFSHTGEVSSVKVIRNKLTSQSEGYGFVEFLSRAAAEEVLQNYSGSVMPNSDQPFRINWASFSTGEKRAVENGPDLSVFVGDLSPDVTDVLLHETFSDRYPSVKSAKVVIDSNTGRSKGYGFVRFGDENERSRALTEMNGAYCSNRQMRVGIATPKRAIANQQQHSSQAVILAGGHGSNGSMGYGSQSDGESTNATIFVGGIDPDVIDEDLRQPFSQFGEVVSVKIPVGKGCGFVQFADRKSAEDAIESLNGTVIGKNTVRLSWGRSPNKQWRGDSGQQWNGGYSRGHGYNNGGGYANHHDSNNYHGEN	binds
TSN2 (recombinant) (protein, UniProt Q9FLT0 1-985) MATGAATENQWLKGRVKAVTSGDCLVITALTHNRAGPPPEKTITLSSLMAPKMARRGGIDEPFAWESREFLRKLCIGKEVAFKVDYKVEAIAGREFGSVYLGNENLAKLVVQNGWAKVRRPGQQNQDKVSPYIAELEQLEEQAQQEGFGRWSKVPGAAEASIRNLPPSAVGDSGNFDAMGLLAASKGKPMEGIVEQVRDGSTIRVYLLPEFQFVQVFVAGLQAPSMGRRQSTQEAVVDPDVTATSNGDASAETRGPLTTAQRLAASAASSVEVSSDPFAMEAKYFTELRVLNRDVRIVLEGVDKFNNLIGSVYYSDGDTVKDLGLELVENGLAKYVEWSANMLDEEAKKKLKATELQCKKNRVKMWANYVPPASNSKAIHDQNFTGKVVEVVSGDCLVVADDSIPFGSPMAERRVCLSSIRSPKMGNPRREEKPAPYAREAKEFLRQKLIGMEVIVQMEYSRKISPGDGVTTSGAGDRVMDFGSVFLPSPTKGDTAVAAAATPGANIAELIISRGLGTVVRHRDFEERSNHYDALLAAEARAIAGKKNIHSAKDSPALHIADLTVASAKKAKDFLPSLQRINQISAVVEYVLSGHRFKLYIPKESCSIAFAFSGVRCPGRGEPYSEEAIALMRRKIMQRDVEIVVENVDRTGTFLGSMWEKNSKTNAGTYLLEAGLAKMQTGFGADRIPEAHILEMAERSAKNQKLKIWENYVEGEEVVNGSSKVETRQKETLKVVVTEVLGGGRFYVQTVGDQKVASIQNQLAALSLKDAPIIGSFNPKKGDIVLAQFSLDNSWNRAMIVNGPRGAVQSPEEEFEVFYIDYGNQEIVPYSAIRPVDPSVSSAPGLAQLCRLAYIKVPGKEEDFGRDAGEYLHTVTLESGKEFRAVVEERDTSGGKVKGQGTGTELVVTLIAVDDEISVNAAMLQEGIARMEKRRRWEPKDKQAALDALEKFQDEARKSRTGIWEYGDIQSDDEDNVPVRKPGRG	binds
ECT2 (recombinant) (protein, UniProt Q9LJE5 1-667) MATVAPPADQATDLLQKLSLDSPAKASEIPEPNKKTAVYQYGGVDVHGQVPSYDRSLTPMLPSDAADPSVCYVPNPYNPYQYYNVYGSGQEWTDYPAYTNPEGVDMNSGIYGENGTVVYPQGYGYAAYPYSPATSPAPQLGGEGQLYGAQQYQYPNYFPNSGPYASSVATPTQPDLSANKPAGVKTLPADSNNVASAAGITKGSNGSAPVKPTNQATLNTSSNLYGMGAPGGGLAAGYQDPRYAYEGYYAPVPWHDGSKYSDVQRPVSGSGVASSYSKSSTVPSSRNQNYRSNSHYTSVHQPSSVTGYGTAQGYYNRMYQNKLYGQYGSTGRSALGYGSSGYDSRTNGRGWAATDNKYRSWGRGNSYYYGNENNVDGLNELNRGPRAKGTKNQKGNLDDSLEVKEQTGESNVTEVGEADNTCVVPDREQYNKEDFPVDYANAMFFIIKSYSEDDVHKSIKYNVWASTPNGNKKLAAAYQEAQQKAGGCPIFLFFSVNASGQFVGLAEMTGPVDFNTNVEYWQQDKWTGSFPLKWHIVKDVPNSLLKHITLENNENKPVTNSRDTQEVKLEQGLKIVKIFKEHSSKTCILDDFSFYEVRQKTILEKKAKQTQKQVSEEKVTDEKKESATAESASKESPAAVQTSSDVKVAENGSVAKPVTGDVVANGC	binds

From paper PMC12205081
